The inconclusive results got no clear call from the source; some entries with a clear call stand among them for comparison. Potencies of inconclusive entries are doubtful fits and often do not repeat. Calls of active or inactive are those of the source. Calls follow the shape of the dose curve; as a rule, active = well fitted inhibition curve with a large enough effect; inconclusive = small, poorly fitted or top-dose-only effect; inactive = no such curve, though single readings can be large or run the other way.
Assay: Acumen qHTS Assay for Inhibitors of the mTORC1 Signaling Pathway in WT MEF Cells: Hit Validation; also: nearly all actives have a fitted effect of over 60% in size;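 as to activity change, negative = inhibition: phospho-rpS6 Ser235/236 immunofluorescence normalised to propidium iodide cell stain; percent of cells above a cutoff set by 7.5 nM rapamycin treated wells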
Details: Acumen imaging; series mostly up to 37.3 µM; activity change, negative = inhibition: at the top concentration
Summary of the method: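 Read-out is immunofluorescent phospho-rpS6 (Ser235/236) normalised to PI-stained cell number, reported as % active cells using a 7.5 nM rapamycin threshold. Cells: WT or Tsc2-/-, p53-/- MEFs, compound-exposed 24 h at 37C; PI count also tracks viability.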
Potency is read from the fitted curve at half-maximal effect.

Compound	Potency	activity change, negative = inhibition
COc1ccc(OC)c(NC2=C(c3ccccc3)C(=O)c3ccccc32)c1	inconclusive: 4.14 µM [inhibitor, full curve]	–
CCOc1ccc(NC(=O)CSc2c3c(nc4ccccc24)CCCC3)cc1	inconclusive: 16.5 µM [inhibitor, single point]	–
CCOc1ccc(S(=O)(=O)N(C(C)=O)c2ccc3oc(C)c(C(=O)OC)c3c2)cc1	inconclusive: 4.65 µM [inhibitor, full curve]	–
COc1ccc(NC(=O)c2ccc3c(=O)n4nc(Nc5cc(C)ccc5C)sc4nc3c2)cc1	active: 2.93 µM	–
Cc1nc2nncn2c(NCc2ccc(Cl)cc2)c1C	inconclusive: 10.4 µM [inhibitor, single point]	–
CCCCNC(=O)c1ccc2c(c1)N=C(CC)c1ccccc1S2	inconclusive: 1.31 µM [inhibitor, full curve]	–
COC(=O)c1ccccc1NC(=O)c1nc(S(=O)(=O)Cc2cccc(C)c2)ncc1Cl	active: 5.21 µM	–
O=S(=O)(NCC(c1ccco1)S(=O)(=O)c1cccs1)c1ccc(Cl)cc1 (configuration not stated)	–	inactive: -6.47%
CCCCN(CC)CCCNC(=O)C1CCN(c2nc3ccc(CC)cc3s2)CC1	inconclusive: 20.7 µM [inhibitor, single point]	–
Cc1ccc(-c2csc(-c3cc4c([nH]c3=O)CC(c3ccccc3)CC4=O)n2)cc1 (configuration not stated)	inconclusive: 1.85 µM [inhibitor, full curve]	–
Cc1ccc(S(=O)(=O)c2nnn3c2nc(NC2CCCCC2)c2sccc23)cc1C	–	inactive: -2.29%
Cc1cccc(N2CCN(C(=O)c3cnn(-c4cccc(Cl)c4C)c3C3CCNCC3)CC2)c1C	inconclusive: 26.1 µM [inhibitor, single point]	–

Sorted by SMILES length (ascending): some entries from above
Compound	Potency	activity change, negative = inhibition
CCOc1ccc(NC(=O)CSc2c3c(nc4ccccc24)CCCC3)cc1	inconclusive: 16.5 µM [inhibitor, single point]	–
CCCCN(CC)CCCNC(=O)C1CCN(c2nc3ccc(CC)cc3s2)CC1	inconclusive: 20.7 µM [inhibitor, single point]	–
CCOc1ccc(S(=O)(=O)N(C(C)=O)c2ccc3oc(C)c(C(=O)OC)c3c2)cc1	inconclusive: 4.65 µM [inhibitor, full curve]	–
